Experimental data: PubChem BioAssay AID1259424 (University of Nebraska Medical Center, 2018)

- Screen: 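Seek colon cancer survival genes behaving like KSR1, using a six-gene signature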 (primary screen)
- System: human HCT116 colon cancer cells
- Reagent: siRNA pool against human genes, 50 nM
- Detection: 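Six signature mRNAs by branched-DNA multiplex assay, scaled to two housekeeping genes and non-targeting median, log2; matched to mean KSR1 knockdown profile by Pearson correlation and euclidean distance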
- Direction: mean correlation with KSR1 profile: higher = expression change more like KSR1 knockdown; mean distance from KSR1 profile: higher = expression change less like KSR1 knockdown
The whole screen tested about 14,000 reagents; this is an unselected part. 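Higher correlation or smaller distance means closer resemblance to KSR1 loss; control wells, including KSR1 knockdowns, recur on many plates.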 The numbers tell different reagents against one gene apart. Further read-outs or replicates are left out here. Not stated in the record: the time to read-out.

The opening 2 entries as a preview:
| gene | reagent no. | mean correlation with KSR1 profile | mean distance from KSR1 profile |
| --- | --- | --- | --- |
| ERF | 1 | 0.409 | 1.66 |
| EEF2 | 1 | 0.35 | 1.34 |

The list itself, repeating the preview:
| gene | reagent no. | mean correlation with KSR1 profile | mean distance from KSR1 profile |
| --- | --- | --- | --- |
| ERF | 1 | 0.409 | 1.66 |
| EEF2 | 1 | 0.35 | 1.34 |
| DEPDC1 | 1 | -0.256 | 3.08 |
| GANAB | 1 | -0.581 | 2.53 |
| PRPSAP1 | 1 | 0.0185 | 1.92 |
| MBD4 | 1 | -0.107 | 2.25 |
| HLA-DRB1 | 1 | 0.167 | 2.29 |
| EYA4 | 1 | -0.288 | 3.1 |
| S100A2 | 1 | 0.496 | 2.08 |
| SHC3 | 1 | -0.394 | 2.9 |
| ZNF521 | 1 | 0.277 | 1.49 |
| MYCL | 1 | -0.46 | 2.44 |
| BNC1 | 1 | 0.533 | 3.05 |
| FIGNL1 | 1 | -0.192 | 2.02 |
| SHMT1 | 1 | -0.471 | 2.81 |
| MCC | 1 | -0.476 | 1.74 |
| ATF3 | 1 | 0.26 | 1.33 |
| TMEM14C | 1 | -0.573 | 3.11 |
| ASCC3 | 1 | -0.548 | 2.45 |
| ASCC3 | 2 | -0.477 | 6.54 |
